{"source": "patent US9938322B2", "about": "(priority 2013, dated 2018)", "note": "Some peptides are written in HELM: one residue between dots, names in brackets for other building blocks, links after the first $. Where no end group is shown, it is not given here. [ ]: non-standard residue; d: D form. Cha = N[C@@H](CC1CCCCC1)C(=O)O; Tle = CC(C)(C)[C@H](N)C(=O)O; dDab = NCC[C@@H](N)C(=O)O; hSer = N[C@@H](CCO)C(=O)O; Orn = NCCC[C@H](N)C(=O)O; Dab = NCC[C@H](N)C(=O)O; Dap = NC[C@H](N)C(=O)O", "data": [{"assay": "general procedure: Fmoc solid-phase peptide synthesis; preloaded Fmoc-amino acid 2-chlorotrityl resins", "settings": "whole synthesis, scale of the general procedure approximately 80 mg resin per vessel", "units": {"purity (crude or final not stated)": "%"}, "values": [{"substance": "Ala(2ClPhUr)-Ala-Cha-Dab-Orn-^DDab-Dab-Trp-Dab-tBuGly-Ala-Ser-^DPro-Pro", "purity (crude or final not stated)": 87}, {"substance": "Ala(4ClPhUr)-Ala-Cha-Dab-Orn-^DDab-Dab-Trp-Dab-tBuGly-Ala-Ser-^DPro-Pro", "purity (crude or final not stated)": 88}, {"substance": "Ala(CF3)-Ser-Tyr-Dab-Orn-^DDab-Dab-Trp-Dab-tBuGly-Ala-Ser-^DPro-Pro", "purity (crude or final not stated)": 89}, {"substance": "IS[Cha][Dab][Orn][Dab][Dab]W[Dab][Tle]AS[dP]P", "purity (crude or final not stated)": 95}, {"substance": "LSY[Dab]K[Dab][Dab]W[Dab][Tle]AS[dP]P", "purity (crude or final not stated)": 80}, {"substance": "LSY[Dab][Orn][dDab][Dab]W[Dab]Y(Me)AS[dP]P", "purity (crude or final not stated)": 90}, {"substance": "LSY[Dab][Orn][dDab][Dab]W[hSer][Tle]A[Dap][dP]P", "purity (crude or final not stated)": 72}, {"substance": "LTY[Dab][Orn][dDab][Dab]W[Dab][Tle]NS[dP]P", "purity (crude or final not stated)": 95}, {"substance": "Leu-Ala(2ClPhUr)-Cha-Dab-Orn-^DDab-Dab-Trp-Dab-tBuGly-Ala-Ser-^DPro-Pro", "purity (crude or final not stated)": 81}, {"substance": "Leu-Ala(3PyrMeUr)-Cha-Dab-Orn-^DDab-Dab-Trp-Dab-tBuGly-Ala-Ser-^DPro-Pro", "purity (crude or final not stated)": 82}, {"substance": "Leu-Ala-Cha-Dab-Orn-^DDab-Dab-Trp-Dab-tBuGly-Alb-Ser-^DPro-Pro((3S)OH)", "purity (crude or final not stated)": 90}, {"substance": "Leu-Ser-Tyr-Dab-Orn-^DDab-Dab-Trp-Dab-Tyr-Ala-Ser-^DPro-Pro((3S)OH)", "purity (crude or final not stated)": 92}, {"substance": "PEPTIDE1{F.[Dap].Y.[Dab].[Orn].[DDab].[Dab].W.[Dab].[tBuGly].A.S.[dP].P}$PEPTIDE1,PEPTIDE1,1:R1-14:R2$$$V2.0", "purity (crude or final not stated)": 91}, {"substance": "PEPTIDE1{I.A.Y.[Dab].[Dab].[DDab].[Dab].W.[Dab].[tBuGly].T.T.[dP].P}$PEPTIDE1,PEPTIDE1,1:R1-14:R2$$$V2.0", "purity (crude or final not stated)": 94}, {"substance": "PEPTIDE1{I.A.Y.[Dab].[Orn].[D-Dab].[Dab].W.[Dab].[tBuGly].A.S.[dP].P}$PEPTIDE1,PEPTIDE1,1:R1-14:R2$$$V2.0", "purity (crude or final not stated)": 89}, {"substance": "PEPTIDE1{I.A.[Cha].[Dab].[Orn].[DDab].[Dab].W.[Dab].[tBuGly].S.S.[dP].P}$PEPTIDE1,PEPTIDE1,1:R1-14:R2$$$V2.0", "purity (crude or final not stated)": 91}, {"substance": "PEPTIDE1{I.N.Y.[Dab].[Orn].[D-Dab].[Dab].W.[Dab].[tBuGly].A.S.[dP].P}$PEPTIDE1,PEPTIDE1,1:R1-14:R2$$$V2.0", "purity (crude or final not stated)": 86}, {"substance": "PEPTIDE1{I.S.Y.[Dab].K.[D-Dab].[Dab].W.[Dab].[tBuGly].A.S.[dP].P}$PEPTIDE1,PEPTIDE1,1:R1-14:R2$$$V2.0", "purity (crude or final not stated)": 93}, {"substance": "PEPTIDE1{I.S.Y.[Dab].[Orn].[D-Dab].[Dab].W.[Dab].I.A.S.[dP].P}$PEPTIDE1,PEPTIDE1,1:R1-14:R2$$$V2.0", "purity (crude or final not stated)": 88}, {"substance": "PEPTIDE1{I.S.Y.[Dab].[Orn].[DDab].[Dab].W.[Dab].W.A.S.[dP].P}$PEPTIDE1,PEPTIDE1,1:R1-14:R2$$$V2.0", "purity (crude or final not stated)": 92}, {"substance": "PEPTIDE1{I.S.Y.[Dab].[Orn].[DDab].[Dab].W.[Dab].[tBuGly].A.S.[dP].P}$PEPTIDE1,PEPTIDE1,1:R1-14:R2$$$V2.0", "purity (crude or final not stated)": 88}, {"substance": "PEPTIDE1{I.S.[Phe(4NH2)].[Dab].[Orn].[D-Dab].[Dab].W.[Dab].[tBuGly].A.S.[dP].P}$PEPTIDE1,PEPTIDE1,1:R1-14:R2$$$V2.0", "purity (crude or final not stated)": 92}, {"substance": "PEPTIDE1{I.S.[tBuGly].[Dab].[Orn].[DDab].[Dab].W.[Dab].[Chg].A.S.[dP].P}$PEPTIDE1,PEPTIDE1,1:R1-14:R2$$$V2.0", "purity (crude or final not stated)": 93}, {"substance": "PEPTIDE1{I.T.Y.[Dab].[Orn].[D-Dab].[Dab].W.[Dab].[tBuGly].A.S.[dP].P}$PEPTIDE1,PEPTIDE1,1:R1-14:R2$$$V2.0", "purity (crude or final not stated)": 95}, {"substance": "PEPTIDE1{I.[Abu].Y.[Dab].[Orn].[D-Dab].[Dab].W.[Dab].[tBuGly].A.S.[dP].P}$PEPTIDE1,PEPTIDE1,1:R1-14:R2$$$V2.0", "purity (crude or final not stated)": 95}, {"substance": "PEPTIDE1{I.[Dap].Y.[Dab].[Orn].[DDab].[Dab].W.[Dab].[tBuGly].A.S.[dP].P}$PEPTIDE1,PEPTIDE1,1:R1-14:R2$$$V2.0", "purity (crude or final not stated)": 93}, {"substance": "PEPTIDE1{I.[alloThr].Y.[Dab].[Orn].[D-Dab].[Dab].W.[Dab].[tBuGly].A.S.[dP].P}$PEPTIDE1,PEPTIDE1,1:R1-14:R2$$$V2.0", "purity (crude or final not stated)": 90}, {"substance": "PEPTIDE1{L.A.Y.[Dab].K.[D-Dab].[Dab].W.[Dab].[Cha].A.S.[dP].P}$PEPTIDE1,PEPTIDE1,1:R1-14:R2$$$V2.0", "purity (crude or final not stated)": 86}, {"substance": "PEPTIDE1{L.A.Y.[Dab].[Orn].[D-Dab].[Dab].W.[Dab].[Cha].A.S.[dP].P}$PEPTIDE1,PEPTIDE1,1:R1-14:R2$$$V2.0", "purity (crude or final not stated)": 89}, {"substance": "PEPTIDE1{L.A.Y.[Dab].[Orn].[D-Dab].[Dab].W.[Dab].[Chg].A.S.[dP].P}$PEPTIDE1,PEPTIDE1,1:R1-14:R2$$$V2.0", "purity (crude or final not stated)": 90}, {"substance": "PEPTIDE1{L.A.Y.[Dab].[Orn].[D-Dab].[Dab].W.[Dab].[tBuGly].S.S.[dP].P}$PEPTIDE1,PEPTIDE1,1:R1-14:R2$$$V2.0", "purity (crude or final not stated)": 89}, {"substance": "PEPTIDE1{L.A.Y.[Dab].[Orn].[DDab].[Dab].W.[Dab].[tBuGly].A.S.[dP].P}$PEPTIDE1,PEPTIDE1,1:R1-14:R2$$$V2.0", "purity (crude or final not stated)": 75}, {"substance": "PEPTIDE1{L.A.Y.[Dab].[Orn].[DDab].[Dab].W.[Dab].[tBuGly].S.T.[dP].P}$PEPTIDE1,PEPTIDE1,1:R1-14:R2$$$V2.0", "purity (crude or final not stated)": 85}, {"substance": "PEPTIDE1{L.A.[Cha].[Dab].[Orn].[DDab].[Dab].W.[Dab].[tBuGly].S.S.[dP].P}$PEPTIDE1,PEPTIDE1,1:R1-14:R2$$$V2.0", "purity (crude or final not stated)": 84}, {"substance": "PEPTIDE1{L.D.Y.[Dab].[Orn].[D-Dab].[Dab].W.[Dab].[tBuGly].N.S.[dP].P}$PEPTIDE1,PEPTIDE1,1:R1-14:R2$$$V2.0", "purity (crude or final not stated)": 95}, {"substance": "PEPTIDE1{L.D.Y.[Dab].[Orn].[D-Dab].[Dab].W.[Dab].[tBuGly].Y.S.[dP].P}$PEPTIDE1,PEPTIDE1,1:R1-14:R2$$$V2.0", "purity (crude or final not stated)": 94}, {"substance": "PEPTIDE1{L.D.Y.[Dab].[Orn].[D-Dab].[Dab].W.[Dab].[tBuGly].[Dab].S.[dP].P}$PEPTIDE1,PEPTIDE1,1:R1-14:R2$$$V2.0", "purity (crude or final not stated)": 94}, {"substance": "PEPTIDE1{L.G.Y.[Dab].[Orn].[DDab].[Dab].W.[Dab].[tBuGly].[Dab].S.[dP].P}$PEPTIDE1,PEPTIDE1,1:R1-14:R2$$$V2.0", "purity (crude or final not stated)": 88}, {"substance": "PEPTIDE1{L.N.Y.[Dab].[Orn].[D-Dab].[Dab].W.[Dab].[tBuGly].N.S.[dP].P}$PEPTIDE1,PEPTIDE1,1:R1-14:R2$$$V2.0", "purity (crude or final not stated)": 94}, {"substance": "PEPTIDE1{L.N.Y.[Dab].[Orn].[D-Dab].[Dab].W.[Dab].[tBuGly].T.S.[dP].P}$PEPTIDE1,PEPTIDE1,1:R1-14:R2$$$V2.0", "purity (crude or final not stated)": 94}, {"substance": "PEPTIDE1{L.S.F.[Dab].[Orn].[DDab].[Dab].W.[Dab].[tBuGly].A.S.[dP].P}$PEPTIDE1,PEPTIDE1,1:R1-14:R2$$$V2.0", "purity (crude or final not stated)": 87}, {"substance": "PEPTIDE1{L.S.W.[Dab].[Orn].[DDab].[Dab].W.[Dab].W.A.S.[dP].P}$PEPTIDE1,PEPTIDE1,1:R1-14:R2$$$V2.0", "purity (crude or final not stated)": 92}, {"substance": "PEPTIDE1{L.S.W.[Dab].[Orn].[DDab].[Dab].W.[Dab].[tBuGly].A.S.[dP].P}$PEPTIDE1,PEPTIDE1,1:R1-14:R2$$$V2.0", "purity (crude or final not stated)": 91}, {"substance": "PEPTIDE1{L.S.Y.[Dab].K.[DDab].[Dab].W.[Dab].W.A.S.[dP].P}$PEPTIDE1,PEPTIDE1,1:R1-14:R2$$$V2.0", "purity (crude or final not stated)": 91}, {"substance": "PEPTIDE1{L.S.Y.[Dab].K.[DDab].[Dab].W.[Dab].[tBuGly].A.S.[dP].P}$PEPTIDE1,PEPTIDE1,1:R1-14:R2$$$V2.0", "purity (crude or final not stated)": 86}, {"substance": "PEPTIDE1{L.S.Y.[Dab].R.[DDab].[Dab].W.[Dab].[tBuGly].A.S.[dP].P}$PEPTIDE1,PEPTIDE1,1:R1-14:R2$$$V2.0", "purity (crude or final not stated)": 91}, {"substance": "PEPTIDE1{L.S.Y.[Dab].[Dab].[DDab].[Dab].W.[Dab].[tBuGly].A.S.[dP].P}$PEPTIDE1,PEPTIDE1,1:R1-14:R2$$$V2.0", "purity (crude or final not stated)": 91}, {"substance": "PEPTIDE1{L.S.Y.[Dab].[Dap].[DDab].[Dab].W.[Dab].[tBuGly].A.S.[dP].P}$PEPTIDE1,PEPTIDE1,1:R1-14:R2$$$V2.0", "purity (crude or final not stated)": 88}, {"substance": "PEPTIDE1{L.S.Y.[Dab].[Orn].[D-Dab].[Dab].W.[Dab].W.S.S.[dP].P}$PEPTIDE1,PEPTIDE1,1:R1-14:R2$$$V2.0", "purity (crude or final not stated)": 92}, {"substance": "PEPTIDE1{L.S.Y.[Dab].[Orn].[D-Dab].[Dab].W.[Dab].[Chg].S.S.[dP].P}$PEPTIDE1,PEPTIDE1,1:R1-14:R2$$$V2.0", "purity (crude or final not stated)": 91}, {"substance": "PEPTIDE1{L.S.Y.[Dab].[Orn].[D-Dab].[Dab].W.[Dab].[tBuGly].A.S.[dP].[Pro((3S)OH)]}$PEPTIDE1,PEPTIDE1,1:R1-14:R2$$$V2.0", "purity (crude or final not stated)": 82}, {"substance": "PEPTIDE1{L.S.Y.[Dab].[Orn].[D-Dab].[Dab].W.[Dab].[tBuGly].A.T.[dP].P}$PEPTIDE1,PEPTIDE1,1:R1-14:R2$$$V2.0", "purity (crude or final not stated)": 95}, {"substance": "PEPTIDE1{L.S.Y.[Dab].[Orn].[D-Dab].[Dab].W.[Dab].[tBuGly].S.S.[dP].P}$PEPTIDE1,PEPTIDE1,1:R1-14:R2$$$V2.0", "purity (crude or final not stated)": 85}, {"substance": "PEPTIDE1{L.S.Y.[Dab].[Orn].[DDab].R.W.[Dab].[tBuGly].A.S.[dP].P}$PEPTIDE1,PEPTIDE1,1:R1-14:R2$$$V2.0", "purity (crude or final not stated)": 94}, {"substance": "PEPTIDE1{L.S.Y.[Dab].[Orn].[DDab].[DDab].W.[Dab].[tBuGly].A.S.[dP].P}$PEPTIDE1,PEPTIDE1,1:R1-14:R2$$$V2.0", "purity (crude or final not stated)": 80}, {"substance": "PEPTIDE1{L.S.Y.[Dab].[Orn].[DDab].[Dab].W.K.[tBuGly].A.S.[dP].P}$PEPTIDE1,PEPTIDE1,1:R1-14:R2$$$V2.0", "purity (crude or final not stated)": 93}]}]}
